Results as given in patent publication US20020037832A1, “Use of alpha-MSH and EPO for preventing or treating ischemic conditions” (priority 2000, published 2002).

System: rats with ischemia-induced ARF
Experiment: Ischemia-induced acute renal failure (ARF) by bilateral renal artery occlusion: clearance studies, immunoblotting, immunocytochemistry
Type: in vivo, rat
Conditions: ARF + MSH group
[1] = Baseline period Day-1 (before operation)
[2] = Baseline period Day-2 (before operation)

Question: Which Urine osmolality [1] does the source give for “α-melanocyte stimulating hormone [α-MSH]” here?
Answer: 1439 mosm/KgH2O

Question: What about the Urine output [1] of the same substance?
Answer: 2.16 mL/h/kg

Question: What about the “Urine output (Table 5)” value [1] of the same substance?
Answer: 36 μl/mm/Kg

Question: And the Urine osmolality [2]?
Answer: 1602 mosm/KgH2O

Question: And the Urine output [2]?
Answer: 2.1 mL/h/kg

Question: What about the “Urine output (Table 5)” value [2] of the same substance?
Answer: 35 μl/mm/Kg
